Reference: PubChem BioAssay AID270 (DTP/NCI, 2004)
The list shows only some results of the screen, not a fair sample: it is rich in T/C values a quarter to a half above the control, in often repeated tests (any T/C) and in doses without a T/C. Further doses and runs are listed elsewhere. T/C: endpoint of the treated group in % of that of the vehicle group. Schedule codes are those of the source, taken here to give the interval after Q, in days (D) or hours (H), and the number of doses after X. Some entries hold several experiments; the results are listed from low to high. Counts like (3×) give the number of equal values in this list. Some entries give survivors of the animals treated and no T/C: the source files T/C as zero there, which appears to mark a toxic dose or a test without result, not a measured value. Some survivor counts are full or nearly so, which does not show that the dose was tolerated: survival well below the control is almost never listed, so the zero probably covers shortened survival too. Survivors were counted at the toxicity check, usually on the fifth day, unless a day is given; later deaths do not show. For survival time, this PubChem deposit counts one and a half times the control or more as active, and values a quarter to a half above the control carry no call in these data; other NCI protocols may use other cut-offs. Some T/C values carry the count of animals alive at the toxicity check (mostly the fifth day); where none is given, no animal had died by that day. *1 amine or outer side, *2 acyl side, *3 side chain or, on linkers, in order; H or OH if unused. Where a SMILES comes first, the peptide text is derived from it. Bridges are numbered along the chain shown (N, C = ends). Roman numbers before positions name the chains, in order. [ ]: non-standard residue; d: D form. Actinocin(1to9) = Cc1c2oc3c(C)ccc(C(=O)[*:2])c3nc-2c(C(=O)[*:1])c(N)c1=O; X1 = O=C1CC(C(=O)[*:2])N([*:1])C1; NMeV = CN[CH](C(=O)O)C(C)C; Sar = CNCC(=O)O

Tested on: BDF1 mice, s.c. Lewis lung carcinoma, T/C %
Assay: NCI In Vivo Anticancer Drug Screen. Data for tumor model Lewis Lung Carcinoma (subcutaneous) in B6D2F1 (BDF1) mice
How it was run: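 First, mice carry a transplantable tumor. Next, groups receive either compound or vehicle. Finally, survival or tumor dimensions in the dosed animals are divided by the corresponding control figure.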

[1] = T/C endpoint: median survival time, dose: 32.0 mg/kg/injection, schedule: Q01DX009 (ip), vehicle: saline, higher T/C = longer survival

Cc1ccc(NC(=O)N(CCCl)N=O)cc1C
survivor count (T/C endpoint: median survival time, dose: 12.5 mg/kg/injection, schedule: Q01DX009 (ip), vehicle: Klucel (hydroxypropylcellulose) (HPC), higher T/C = longer survival): 9 of 10
survivor count (T/C endpoint: median survival time, dose: 25.0 mg/kg/injection, schedule: Q01DX009 (ip), vehicle: Klucel (hydroxypropylcellulose) (HPC), higher T/C = longer survival): 10 of 10
survivor count (T/C endpoint: median survival time, dose: 50.0 mg/kg/injection, schedule: Q01DX009 (ip), vehicle: Klucel (hydroxypropylcellulose) (HPC), higher T/C = longer survival): 8 of 10

C=C(C)[C@H]1Cc2c(ccc3c2O[C@@H]2COc4cc(OC)c(OC)cc4[C@@H]2C3=O)O1
survivor count (T/C endpoint: mean tumor weight, dose: 0.75 mg/kg/injection, schedule: Q01DX011 (ip), vehicle: water, higher T/C = larger tumour): 3 of 6

CCC(CCC(C)C1CCC2C3CC=C4CC(OC(=O)CCC(=O)O)CCC4(C)C3CCC12C)C(C)C (stereo not given)
survivor count (T/C endpoint: mean tumor weight, dose: 300.0 mg/kg/injection, schedule: Q01DX011 (ip), vehicle: water, higher T/C = larger tumour): 3 of 6
survivor count (T/C endpoint: mean tumor weight, dose: 800.0 mg/kg/injection, schedule: Q01DX011 (ip), vehicle: water, higher T/C = larger tumour): 1 of 6

Cc1ccc(NC(=O)c2ccccc2)cc1[As]=[As]c1cc(NC(=O)c2ccccc2)ccc1C (stereo not given)
survivor count (T/C endpoint: median survival time, dose: 2.5 mg/kg/injection, schedule: Q01DX009 (ip), vehicle: Klucel (hydroxypropylcellulose) (HPC), higher T/C = longer survival): 10 of 10
survivor count (T/C endpoint: median survival time, dose: 5.0 mg/kg/injection, schedule: Q01DX009 (ip), vehicle: Klucel (hydroxypropylcellulose) (HPC), higher T/C = longer survival): 10 of 10

Nc1ncnc2c1ncn2C1OC(CO)CC1O (stereo not given)
survivor count (T/C endpoint: mean tumor weight, dose: 150.0 mg/kg/injection, schedule: Q01DX011 (ip), vehicle: saline, higher T/C = larger tumour): 0 of 6
survivor count (T/C endpoint: mean tumor weight, dose: 300.0 mg/kg/injection, schedule: Q01DX011 (ip), vehicle: saline, higher T/C = larger tumour): 0 of 6

Cc1c2oc3c(C)ccc(C(=O)NC4C(=O)NC(C(C)C)C(=O)N5CCCC5C(=O)N(C)CC(=O)N(C)C(C(C)C)C(=O)OC4C)c3nc-2c(C(=O)NC2C(=O)NC(C(C)C)C(=O)N3CC(=O)CC3C(=O)N(C)CC(=O)N(C)C(C(C)C)C(=O)OC2C)c(N)c1=O (stereo not given) (I: TV[X1][Sar][NMeV] / II: TVP[Sar][NMeV]; ester I:1-I:C, II:1-II:C; linker I:N-II:N via Actinocin(1to9); configuration not given here)
survivor count (T/C endpoint: median survival time, dose: 25.0 micrograms/kg/injection, schedule: Q01DX009 (ip), vehicle: water, higher T/C = longer survival): 10 of 10
survivor count (T/C endpoint: median survival time, dose: 50.0 micrograms/kg/injection, schedule: Q01DX009 (ip), vehicle: water, higher T/C = longer survival): 8 of 10
survivor count (T/C endpoint: median survival time, dose: 75.0 micrograms/kg/injection, schedule: Q04DX003 (ip), vehicle: water, higher T/C = longer survival): 10 of 10
survivor count (T/C endpoint: median survival time, dose: 150.0 micrograms/kg/injection, schedule: Q04DX003 (ip), vehicle: water, higher T/C = longer survival): 10 of 10

C[C@]12CC[C@H](O)CC1=CC[C@@H]1[C@@H]2CC[C@]2(C)c3nc4ccccc4cc3C[C@@H]12
T/C (T/C endpoint: mean tumor weight, dose: 15.0 mg/kg/injection, schedule: Q01DX011 (sc), vehicle: steroid suspending solution, evaluated on day 12, higher T/C = larger tumour): 45 (2×) and 125 % of control (2×)
T/C (T/C endpoint: mean tumor weight, dose: 30.0 mg/kg/injection, schedule: Q01DX011 (sc), vehicle: steroid suspending solution, evaluated on day 12, higher T/C = larger tumour): 44 (2×) and 47 % of control (2×)
survivor count (T/C endpoint: mean tumor weight, dose: 1000.0 mg/kg/injection, schedule: Q01DX011 (sc), vehicle: steroid suspending solution, higher T/C = larger tumour): 3 of 7

Cc1c(N)nc([C@H](CC(N)=O)NC[C@H](N)C(N)=O)nc1C(=O)N[C@H](C(=O)N[C@H](C)[C@@H](O)[C@H](C)C(=O)N[C@H](C(=O)NCCc1nc(-c2nc(C(=O)NCCC[S+](C)C)cs2)cs1)[C@@H](C)O)C(OC1OC(CO)C(O)C(O)C1OC1OC(CO)C(O)C(OC(N)=O)C1O)c1cnc[nH]1 (stereo not given in full)
T/C (T/C endpoint: median survival time, dose: 2.0 mg/kg/injection, schedule: Q01DX009 (ip), vehicle: saline, higher T/C = longer survival): 125 and 126 % of control
T/C (T/C endpoint: median survival time, dose: 2.0 mg/kg/injection, schedule: Q01DX009 (ip), vehicle: water, higher T/C = longer survival): 133 % of control
T/C (T/C endpoint: median survival time, dose: 4.0 mg/kg/injection, schedule: Q01DX009 (ip), vehicle: saline, evaluated on day 5, higher T/C = longer survival): 127 % of control
T/C (T/C endpoint: median survival time, dose: 4.0 mg/kg/injection, schedule: Q01DX009 (ip), vehicle: saline, evaluated on day 60, higher T/C = longer survival): 111, 112, 116 % of control [9 of 10 alive]
T/C (T/C endpoint: median survival time, dose: 8.0 mg/kg/injection, schedule: Q01DX009 (ip), vehicle: saline, evaluated on day 5, higher T/C = longer survival): 100 % of control
T/C (T/C endpoint: median survival time, dose: 8.0 mg/kg/injection, schedule: Q01DX009 (ip), vehicle: saline, evaluated on day 60, higher T/C = longer survival): 100, 121, 127 % of control
T/C (T/C endpoint: median survival time, dose: 8.0 mg/kg/injection, schedule: Q01DX009 (ip), vehicle: water, higher T/C = longer survival): 127 % of control
T/C (T/C endpoint: median survival time, dose: 13.3 mg/kg/injection, schedule: Q01DX009 (ip), vehicle: water, higher T/C = longer survival): 135 % of control
T/C (T/C endpoint: median survival time, dose: 15.0 mg/kg/injection, schedule: Q01DX010 (ip), vehicle: water, higher T/C = longer survival): 142 % of control
T/C (T/C endpoint: median survival time, dose: 16.0 mg/kg/injection, schedule: Q01DX009 (ip), vehicle: saline, higher T/C = longer survival): 125 % of control
survivor count (T/C endpoint: median survival time, dose: 16.0 mg/kg/injection, schedule: Q01DX009 (ip), vehicle: water, higher T/C = longer survival): 10 of 10 (2×)
T/C (T/C endpoint: median survival time, dose: 22.5 mg/kg/injection, schedule: Q01DX010 (ip), vehicle: water, higher T/C = longer survival): 142 % of control
T/C [1]: 128 % of control
survivor count [1]: 10 of 10 and 8 of 8
survivor count (T/C endpoint: median survival time, dose: 32.0 mg/kg/injection, schedule: Q01DX009 (ip), vehicle: water, higher T/C = longer survival): 10 of 10 (2×)
survivor count (T/C endpoint: median tumor weight (est.), dose: 16.0 mg/kg/injection, schedule: Q01DX009 (ip), vehicle: water, higher T/C = larger tumour): 5 of 10 on day 14
survivor count (T/C endpoint: median tumor weight (est.), dose: 32.0 mg/kg/injection, schedule: Q01DX009 (ip), vehicle: saline, higher T/C = larger tumour): 4 of 10
survivor count (T/C endpoint: median tumor weight (est.), dose: 32.0 mg/kg/injection, schedule: Q01DX009 (ip), vehicle: water, higher T/C = larger tumour): 0 of 10 on day 14
